Laboratory results published in PubChem BioAssay AID493014 (National Center for Advancing Translational Sciences (NCATS), 2011).
The campaign covered roughly 340,000 compounds. About 170 (0.05%) were called active. Inconclusive means that the source gave no clear call. Such entries were picked first, then a sample of the others. The call rests on the fitted dose curve; in most records, active means well fitted inhibition curve with a large enough effect in the signal ratio, with a control signal flat (not every such curve was filed as active); inconclusive means small, poorly fitted or top-dose-only effect, or effect the other way, or a change in a side signal; inactive means flat fitted curve, though single readings scatter; the % refers to the signal ratio. A potency beside an inconclusive call is a rough fit, not a confirmed value.

Test: qHTS Assay to Find Inhibitors of Chronic Active B-Cell Receptor Signaling;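 on activity change, negative = inhibition: plate controls were basal doxycycline-induced cells for no effect and cells given 10 µM MG132 for full effect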
Conditions: ABC-DLBCL IkBa-CBG/CBR reporter, luminescence ratio (green luciferase fused to IkBa over red control in TMD8 lymphoma cells), 4 h; activity change, negative = inhibition: at 46.1 µM (top of the series)
Method in brief: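 Concentration-response series (up to 46 uM) were applied to TMD8 dual-reporter cells for 4 h at 37C with doxycycline. Green/red ratio, after filter-overlap correction, defined %Activity; red signal alone was normalised to basal cells and zero luminescence.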
Potency means the concentration at half of the fitted maximal effect.

| Structure (SMILES) | Potency | activity change, negative = inhibition |
| --- | --- | --- |
| N#CC1=C(N)N(c2ccccc2)C(c2ccccc2)C1(C#N)C#N (stereo unspecified) | inconclusive: 11.2 µM [falling, single point] |  |
| Cc1sc2ncnc(NCc3cccnc3)c2c1C | inconclusive: 10 µM [falling, single point] |  |
| O/N=C(\c1ccc(Cl)cc1)c1cc2ccccc2o1 |  | inconclusive: 8.41% |
| CCc1nc(NCC(C)C)c(C#N)c2c1COC(C)(C)C2 |  | inconclusive: -16.8% |
| O=C(NC(Nc1nc2ccc([N+](=O)[O-])cc2s1)(C(F)(F)F)C(F)(F)F)c1ccccc1 |  | inconclusive: -20.9% |
| Cc1cc(C)n2nnnc2c1C#N |  | inconclusive: 13.4% |
| Cc1ccc(C(=O)Oc2cccc(NC(=O)c3ccccc3)c2)cc1C |  | inactive |
| O=[N+]([O-])c1cccc(-c2nc(-c3ccccc3)c(-c3cccs3)[nH]2)c1 |  | inactive |
| Cc1cccc(-c2noc(CN(C(=O)c3c(-c4ccccc4Cl)noc3C)C(C)C)n2)c1 |  | inconclusive: -0.769% |
| CC(C)(C)C(=O)Cn1ncc(N2CCOCC2)c(Cl)c1=O |  | inactive |
| O=C(O)c1ccc(N/N=C/c2c(F)cccc2Cl)cc1 |  | inconclusive: 150% |
| COc1ccc(CNCc2ccco2)cc1OCc1ccccc1 |  | inactive |
| CN(C(=O)c1ccc(OC2CCN(Cc3ccccn3)CC2)cc1)C1CCCCC1 |  | inactive |
| Cc1cc(N2CCCC2=O)cc(C)c1S(=O)(=O)NCCOc1ccc(C(C)(C)C)cc1 |  | inactive |
| O=S(=O)(c1cc(C(F)(F)F)ccc1Cl)N1CCN(c2ccccn2)CC1 |  | inconclusive: 4.05% |
| Cc1nc(NC(=O)c2ccccc2)sc1-c1csc(Nc2cccc(F)c2)n1 | inconclusive: 7.08 µM [falling, full curve, poor fit] |  |
| CC1(C)CC(CCN(Cc2ccccc2)C(=O)c2ccco2)(c2ccccc2)CCO1 (stereo unspecified) |  | inconclusive: 5.79% |
| O=C(C1CCN(S(=O)(=O)c2cccc3cccnc23)CC1)N1CCn2c1nc1ccccc12 |  | inactive |
| O=[N+]([O-])c1cccc(S(=O)(=O)c2ccc(NCCO)c([N+](=O)[O-])c2)c1 |  | inconclusive: -6.43% |
| CSc1cc(-c2ccccc2)n(Cc2ccc(Cl)cc2Cl)c(=O)c1C#N |  | inconclusive: -2.18% |
| CC(=O)N(c1ccccc1)c1nnc(-c2cnc(C)cn2)s1 |  | inconclusive: -0.503% |

Compounds above that contain a tert-butyl group, in the order listed:

| Structure (SMILES) | Potency | activity change, negative = inhibition |
| --- | --- | --- |
| CC(C)(C)C(=O)Cn1ncc(N2CCOCC2)c(Cl)c1=O |  | inactive |
| Cc1cc(N2CCCC2=O)cc(C)c1S(=O)(=O)NCCOc1ccc(C(C)(C)C)cc1 |  | inactive |

The listing continues.

| Structure (SMILES) | Potency | activity change, negative = inhibition |
| --- | --- | --- |
| CCCCNC(=O)CC1N=C2c3ccccc3N=C(SCC(=O)Nc3ccccc3OC)N2C1=O (stereo unspecified) |  | inconclusive: -0.753% |
| COc1ccccc1N(Cc1cc(=O)[nH]c2ccccc12)C(=O)C(C)C | inconclusive: 25.1 µM [falling, single point] |  |
| O=C(Nc1ccc(O)cc1C(=O)O)c1cccs1 |  | inconclusive: 0.33% |
| COc1cc(NC(=O)CSc2ncnc3scc(-c4ccccc4)c23)c(C(=O)O)cc1OC |  | inconclusive: 8.79% |
| Cc1ccc(NC(=O)C2CCCN(C(=O)c3ccc(Cl)cc3)C2)cc1S(=O)(=O)N1CCOCC1 (stereo unspecified) |  | inconclusive: 5.16% |
| O=C(COc1ccc(Br)cc1CNC1CCCC1)Nc1ccccc1 |  | inconclusive: -10.4% |
| COc1ccc(N2C(=O)CC(Sc3nnnn3-c3ccc(F)cc3)C2=O)cc1 (stereo unspecified) |  | inconclusive: 5.5% |
| CCOC(=O)N1CCC(NC(=O)c2cc3c(=O)[nH]c4ccccc4c3n2C)CC1 | inconclusive: 3.55 µM [rising, partial curve, poor fit] |  |
| COCCNC(=S)N1CCCN(c2nc3cc(C)ccc3cc2C#N)CC1 |  | inconclusive: -0.0265% |
| COc1cc2c(cc1OC)CN(S(C)(=O)=O)CC2 |  | inconclusive: 5.98% |
| O=C(Nc1ccc(S(=O)(=O)N2CCCCCC2)cc1)c1c(F)cccc1F |  | inconclusive: -0.2% |
| O=C(N1CCOCC1)N1CCN(c2nc(-c3ccccc3)cs2)CC1 |  | inconclusive: -1.43% |
| C=CCNc1nnc(SCC(=O)N2CCCCC2)c2ccccc12 |  | inconclusive: 5.43% |
| CCn1nc(C)c(/C=N/NC(=O)Cn2cncn2)c1C |  | inconclusive: -6.94% |
| COC(=O)c1c(S(=O)(=O)NCc2ccccc2)sc(C(=O)O)c1C |  | inconclusive: -16.2% |
| CCOC(=O)C(=CNc1cccc(C)n1)C(=O)OCC | inconclusive: 10 µM [falling, partial curve] |  |
| O=C(Nc1ccc(Nc2ccncc2)cc1)c1ccc(Nc2ccnc3ccc([N+](=O)[O-])cc23)cc1[N+](=O)[O-] | inconclusive: 35.5 µM [rising, single point] |  |
| C/C=C(/C)C(=O)OC1Cc2c(ccc3ccc(=O)oc23)OC1(C)C (stereo unspecified) |  | inconclusive: -12.5% |
| CC(CCc1ccccc1)NC(=O)CCc1cn(C)c2ccccc12 (stereo unspecified) |  | inactive |
| O=C(CCn1nnc2ccccc21)OCC(=O)c1ccc([N+](=O)[O-])cc1 |  | inconclusive: 8.24% |
